For this assay, the target named is T1, bacteriophage T4 antisigma protein AsiA with a C-terminal hexahistidine tag (bacteriophage T4) (UniProt P32267).
T1 sequence: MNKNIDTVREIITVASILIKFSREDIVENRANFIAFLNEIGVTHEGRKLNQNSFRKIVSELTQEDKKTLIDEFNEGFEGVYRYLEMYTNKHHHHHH
Description: Ni2+-NTA agarose co-immobilization.

Amino acid sequences for entries named in this document (tags omitted). Residues count along the entry.
UniProt P00579, residues 568-600: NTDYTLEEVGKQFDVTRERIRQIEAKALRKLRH

Results are given in words; binding and its absence hold for the method and conditions named. Some binding calls cover weakened binding; strength is not graded here. Tags and fused reporters may be left off the sequences shown.

Consider “synthetic peptide corresponding to sigma-70 amino acids 568-600 (from UniProt P00579 568-600)”, for which the binding result is “binds”.

The record behind these values is patent US20020151006A1 (ROCKEFELLER UNIVERSITY, published 2002).
